These are yes or no findings as the source states them, for the method shown. Binding seen in cells or lysates may run through a third protein. Some results given as binding are weak or reduced against the parent protein; the word gives no strength. Where a sequence is shown, tags or fusion partners need not be part of it.
Target: T1, FLAG-FAM83H (human) (UniProt Q6ZRV2)
T1 sequence: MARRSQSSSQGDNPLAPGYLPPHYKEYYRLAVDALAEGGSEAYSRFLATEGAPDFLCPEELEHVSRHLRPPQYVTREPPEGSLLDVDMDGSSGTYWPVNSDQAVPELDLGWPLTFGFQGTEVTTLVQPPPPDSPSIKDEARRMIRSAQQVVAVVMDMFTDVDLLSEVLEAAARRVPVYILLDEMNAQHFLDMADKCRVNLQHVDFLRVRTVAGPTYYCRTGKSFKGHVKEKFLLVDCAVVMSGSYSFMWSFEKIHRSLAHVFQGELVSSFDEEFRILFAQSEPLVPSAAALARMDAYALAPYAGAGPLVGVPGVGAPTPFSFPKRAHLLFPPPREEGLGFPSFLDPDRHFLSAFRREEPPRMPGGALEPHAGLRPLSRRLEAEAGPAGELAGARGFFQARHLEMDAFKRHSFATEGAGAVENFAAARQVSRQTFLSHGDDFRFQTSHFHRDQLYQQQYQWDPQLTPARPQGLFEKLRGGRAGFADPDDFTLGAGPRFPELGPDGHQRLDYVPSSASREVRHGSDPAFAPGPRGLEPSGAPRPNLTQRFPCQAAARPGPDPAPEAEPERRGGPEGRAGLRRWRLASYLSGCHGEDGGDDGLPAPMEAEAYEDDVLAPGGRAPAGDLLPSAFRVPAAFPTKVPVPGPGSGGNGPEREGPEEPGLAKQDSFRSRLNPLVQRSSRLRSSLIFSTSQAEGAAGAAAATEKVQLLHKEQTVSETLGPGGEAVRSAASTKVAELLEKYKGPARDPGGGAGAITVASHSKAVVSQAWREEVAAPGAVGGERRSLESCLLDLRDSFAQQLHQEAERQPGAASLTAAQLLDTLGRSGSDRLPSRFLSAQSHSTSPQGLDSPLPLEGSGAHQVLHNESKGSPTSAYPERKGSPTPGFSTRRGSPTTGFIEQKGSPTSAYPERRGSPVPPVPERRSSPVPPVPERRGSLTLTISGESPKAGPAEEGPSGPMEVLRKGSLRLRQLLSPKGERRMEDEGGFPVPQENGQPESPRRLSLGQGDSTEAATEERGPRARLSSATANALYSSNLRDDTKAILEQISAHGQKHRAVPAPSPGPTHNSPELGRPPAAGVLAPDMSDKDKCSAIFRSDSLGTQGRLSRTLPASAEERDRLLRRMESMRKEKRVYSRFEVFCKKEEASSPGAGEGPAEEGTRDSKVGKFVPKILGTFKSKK
Experiment: co-IP; HEK293T cells transfected with FLAG-FAM83H and/or HA-β-catenin; lysate in IP lysis buffer, anti-FLAG magnetic beads overnight at 4 °C, washed 3-4 times with IP buffer, immunoblot

By UniProt entry, the sequences of proteins in these tests, tags left out.
UniProt P35222: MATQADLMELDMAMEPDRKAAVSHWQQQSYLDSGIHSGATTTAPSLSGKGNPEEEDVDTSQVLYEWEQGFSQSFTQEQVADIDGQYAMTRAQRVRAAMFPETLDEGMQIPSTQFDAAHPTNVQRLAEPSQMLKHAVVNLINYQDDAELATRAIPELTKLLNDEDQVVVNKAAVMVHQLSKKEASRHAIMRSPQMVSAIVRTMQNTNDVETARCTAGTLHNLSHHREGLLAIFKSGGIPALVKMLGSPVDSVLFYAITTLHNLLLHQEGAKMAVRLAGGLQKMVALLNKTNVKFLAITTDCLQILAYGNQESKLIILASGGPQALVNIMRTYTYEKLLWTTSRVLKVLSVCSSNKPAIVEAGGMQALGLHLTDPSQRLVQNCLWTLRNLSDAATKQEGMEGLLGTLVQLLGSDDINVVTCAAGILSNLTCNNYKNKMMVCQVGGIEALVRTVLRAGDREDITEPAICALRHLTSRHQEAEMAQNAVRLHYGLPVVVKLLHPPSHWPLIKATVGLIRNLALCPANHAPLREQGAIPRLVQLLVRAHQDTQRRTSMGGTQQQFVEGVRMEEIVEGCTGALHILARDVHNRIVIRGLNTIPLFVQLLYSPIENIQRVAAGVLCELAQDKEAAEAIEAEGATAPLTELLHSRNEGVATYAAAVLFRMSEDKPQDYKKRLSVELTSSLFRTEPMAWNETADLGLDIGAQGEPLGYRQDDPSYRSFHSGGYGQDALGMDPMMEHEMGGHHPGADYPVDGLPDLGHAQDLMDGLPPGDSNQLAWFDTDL

Substance	binding
HA-β-catenin (from UniProt P35222 1-781)	binds
endogenous β-catenin (from UniProt P35222 1-781)	binds
